Drawing on article PMC5428335, this text covers binding for 2 molecules.

Chains of the proteins cited; added tags and fusions are not shown.
UniProt Q8IY31: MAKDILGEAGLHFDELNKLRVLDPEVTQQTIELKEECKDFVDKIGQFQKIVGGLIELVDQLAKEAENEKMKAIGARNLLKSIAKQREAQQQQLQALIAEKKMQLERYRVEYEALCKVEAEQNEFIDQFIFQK
UniProt Q99996: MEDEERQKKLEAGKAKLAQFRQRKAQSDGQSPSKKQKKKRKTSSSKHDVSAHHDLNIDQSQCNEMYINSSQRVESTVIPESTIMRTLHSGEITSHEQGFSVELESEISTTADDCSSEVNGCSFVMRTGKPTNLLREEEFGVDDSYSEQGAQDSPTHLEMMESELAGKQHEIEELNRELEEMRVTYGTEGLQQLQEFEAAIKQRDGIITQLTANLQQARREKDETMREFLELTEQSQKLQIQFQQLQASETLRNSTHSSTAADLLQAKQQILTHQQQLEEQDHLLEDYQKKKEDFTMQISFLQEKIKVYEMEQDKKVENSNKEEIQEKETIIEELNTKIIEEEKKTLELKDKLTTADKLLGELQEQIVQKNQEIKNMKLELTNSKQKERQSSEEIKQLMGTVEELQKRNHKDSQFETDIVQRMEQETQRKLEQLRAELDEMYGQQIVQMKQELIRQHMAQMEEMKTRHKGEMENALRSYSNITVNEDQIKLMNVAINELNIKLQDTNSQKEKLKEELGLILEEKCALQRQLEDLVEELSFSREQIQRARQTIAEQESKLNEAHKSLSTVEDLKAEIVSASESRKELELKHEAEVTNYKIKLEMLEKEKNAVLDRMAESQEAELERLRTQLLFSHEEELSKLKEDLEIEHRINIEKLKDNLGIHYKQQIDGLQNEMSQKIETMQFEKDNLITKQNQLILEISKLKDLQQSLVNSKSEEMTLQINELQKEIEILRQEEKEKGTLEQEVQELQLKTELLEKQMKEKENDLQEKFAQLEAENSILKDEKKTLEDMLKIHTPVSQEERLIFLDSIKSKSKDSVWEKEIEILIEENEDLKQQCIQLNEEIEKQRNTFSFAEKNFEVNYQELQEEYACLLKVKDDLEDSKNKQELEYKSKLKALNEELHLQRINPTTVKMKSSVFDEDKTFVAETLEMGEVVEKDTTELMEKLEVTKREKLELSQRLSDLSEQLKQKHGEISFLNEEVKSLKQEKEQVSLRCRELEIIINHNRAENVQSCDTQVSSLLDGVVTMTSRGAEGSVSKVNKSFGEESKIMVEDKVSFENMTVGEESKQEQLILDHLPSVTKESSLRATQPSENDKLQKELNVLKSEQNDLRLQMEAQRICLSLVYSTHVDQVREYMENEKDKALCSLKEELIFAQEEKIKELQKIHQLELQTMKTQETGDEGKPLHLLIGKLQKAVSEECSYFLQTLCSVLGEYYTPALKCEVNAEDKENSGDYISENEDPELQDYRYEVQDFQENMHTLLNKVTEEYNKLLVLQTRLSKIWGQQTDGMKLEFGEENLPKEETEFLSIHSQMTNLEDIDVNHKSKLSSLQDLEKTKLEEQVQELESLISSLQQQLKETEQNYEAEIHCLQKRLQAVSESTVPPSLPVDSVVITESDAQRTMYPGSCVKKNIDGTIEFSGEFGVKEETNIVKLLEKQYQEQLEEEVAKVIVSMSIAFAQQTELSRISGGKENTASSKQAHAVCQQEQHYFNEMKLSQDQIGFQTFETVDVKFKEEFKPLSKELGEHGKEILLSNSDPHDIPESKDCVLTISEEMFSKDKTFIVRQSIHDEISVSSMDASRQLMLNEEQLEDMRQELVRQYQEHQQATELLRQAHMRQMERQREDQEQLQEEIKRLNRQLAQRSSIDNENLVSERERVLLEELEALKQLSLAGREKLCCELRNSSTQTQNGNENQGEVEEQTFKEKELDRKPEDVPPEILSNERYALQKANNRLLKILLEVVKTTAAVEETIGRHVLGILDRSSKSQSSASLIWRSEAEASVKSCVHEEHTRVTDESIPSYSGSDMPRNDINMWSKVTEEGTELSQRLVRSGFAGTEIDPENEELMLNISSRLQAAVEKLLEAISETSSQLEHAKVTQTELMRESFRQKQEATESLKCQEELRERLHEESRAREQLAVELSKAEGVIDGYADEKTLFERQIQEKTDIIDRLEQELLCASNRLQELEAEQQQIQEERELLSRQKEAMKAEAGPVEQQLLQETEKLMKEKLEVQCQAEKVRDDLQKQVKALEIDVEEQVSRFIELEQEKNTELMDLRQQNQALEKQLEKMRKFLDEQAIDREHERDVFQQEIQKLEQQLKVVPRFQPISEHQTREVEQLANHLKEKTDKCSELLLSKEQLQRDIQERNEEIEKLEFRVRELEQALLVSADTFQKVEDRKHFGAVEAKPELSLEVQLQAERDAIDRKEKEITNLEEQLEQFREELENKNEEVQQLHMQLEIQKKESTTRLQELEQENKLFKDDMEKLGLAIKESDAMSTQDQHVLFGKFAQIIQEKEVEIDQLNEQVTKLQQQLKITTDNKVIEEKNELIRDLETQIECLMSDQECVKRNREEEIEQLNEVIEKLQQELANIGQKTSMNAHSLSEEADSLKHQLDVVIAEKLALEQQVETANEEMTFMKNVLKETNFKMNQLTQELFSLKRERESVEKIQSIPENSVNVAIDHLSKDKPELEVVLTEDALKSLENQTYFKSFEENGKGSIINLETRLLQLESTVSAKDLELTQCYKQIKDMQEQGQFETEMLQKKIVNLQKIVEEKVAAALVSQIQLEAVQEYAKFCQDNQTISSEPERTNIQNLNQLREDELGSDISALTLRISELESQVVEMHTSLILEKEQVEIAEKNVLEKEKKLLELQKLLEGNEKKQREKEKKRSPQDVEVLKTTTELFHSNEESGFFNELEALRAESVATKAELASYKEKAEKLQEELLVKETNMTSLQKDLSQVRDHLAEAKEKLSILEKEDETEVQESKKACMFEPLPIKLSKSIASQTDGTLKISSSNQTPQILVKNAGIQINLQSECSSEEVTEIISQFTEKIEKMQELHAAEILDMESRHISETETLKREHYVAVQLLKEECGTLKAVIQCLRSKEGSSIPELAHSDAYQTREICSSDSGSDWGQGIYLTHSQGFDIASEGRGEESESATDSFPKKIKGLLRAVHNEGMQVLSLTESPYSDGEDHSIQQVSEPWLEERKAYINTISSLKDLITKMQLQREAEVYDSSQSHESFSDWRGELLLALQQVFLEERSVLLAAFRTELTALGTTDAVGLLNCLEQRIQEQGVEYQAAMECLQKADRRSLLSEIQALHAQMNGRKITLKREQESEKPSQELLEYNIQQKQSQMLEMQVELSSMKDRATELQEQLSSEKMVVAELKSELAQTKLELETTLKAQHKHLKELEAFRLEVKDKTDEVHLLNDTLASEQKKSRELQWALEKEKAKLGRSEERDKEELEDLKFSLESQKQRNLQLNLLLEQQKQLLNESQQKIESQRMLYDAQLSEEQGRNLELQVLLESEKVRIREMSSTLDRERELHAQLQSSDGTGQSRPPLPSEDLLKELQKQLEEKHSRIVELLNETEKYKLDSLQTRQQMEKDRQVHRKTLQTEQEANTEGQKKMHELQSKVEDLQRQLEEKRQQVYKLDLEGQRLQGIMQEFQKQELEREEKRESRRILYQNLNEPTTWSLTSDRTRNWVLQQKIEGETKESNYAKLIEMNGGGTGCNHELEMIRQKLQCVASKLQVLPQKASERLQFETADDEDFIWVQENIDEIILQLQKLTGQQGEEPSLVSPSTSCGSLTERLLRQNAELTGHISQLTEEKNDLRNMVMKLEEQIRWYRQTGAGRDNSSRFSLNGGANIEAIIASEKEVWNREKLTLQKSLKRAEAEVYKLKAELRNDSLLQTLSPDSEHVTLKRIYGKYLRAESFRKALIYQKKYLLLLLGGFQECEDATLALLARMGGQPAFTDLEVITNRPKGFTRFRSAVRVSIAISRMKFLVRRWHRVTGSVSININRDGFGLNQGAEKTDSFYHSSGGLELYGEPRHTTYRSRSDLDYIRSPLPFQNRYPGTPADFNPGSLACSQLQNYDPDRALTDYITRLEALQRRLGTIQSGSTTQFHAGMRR

The target in assay [1] is intraflagellar transport 20 (IFT20) (human (endogenous in SaOS2)) (UniProt Q8IY31). As to the kind of experiment: proximity ligation; in situ PLA (Duolink kit) in fixed SaOS2 cells with anti-IFT20 and anti-AKAP450 or anti-GM130 antibodies; si-IFT20 as control.
For assay [2] the target is unchanged. As to the kind of experiment: co-IP; SaOS2 whole-cell lysates (50 mM Tris-HCl pH 7.5, 150 mM NaCl, 5 mM EDTA, 0.5% NP-40; briefly sonicated) immunoprecipitated with anti-IFT20 antibody or Ctrl IgG; Western blotting. (In western blotting, separated proteins are transferred to a membrane and probed.)

No constants are given. Whether binding was seen depends on the method and setting. Binding seen in cells or lysates may run through a third protein. Some entries that bind do so weakly or less than the wild type.

As to AKAP450 (from UniProt Q99996 1-3907), the binding result in assay [1] and in assay [2] was “binds” each time.

B1: GM130 (protein, UniProt Q08379 1-1002)
chain: MWPQPRLPPRPAMSEETRQSKLAAAKKKLREYQQRNSPGVPTGAKKKKKIKNGSNPETTTSGGCHSPEDTPKDNAATLQPSDDTVLPGGVPSPGASLTSMAASQNHDADNVPNLMDETKTFSSTESLRQLSQQLNGLVCESATCVNGEGPASSANLKDLESRYQQLAVALDSSYVTNKQLNITIEKLKQQNQEITDQLEEEKKECHQKQGALREQLQVHIQTIGILVSEKAELQTALAHTQHAARQKEGESEDLASRLQYSRRRVGELERALSAVSTQQKKADRYNKELTKERDALRLELYKNTQSNEDLKQEKSELEEKLRVLVTEKAGMQLNLEELQKKLEMTELLLQQFSSRCEAPDANQQLQQAMEERAQLEAHLGQVMESVRQLQMERDKYAENLKGESAMWRQRMQQMSEQVHTLREEKECSMSRVQELETSLAELRNQMAEPPPPEPPAGPSEVEQQLQAEAEHLRKELEGLAGQLQAQVQDNEGLSRLNREQEERLLELERAAELWGEQAEARRQILETMQNDRTTISRALSQNRELKEQLAELQSGFVKLTNENMEITSALQSEQHVKRELGKKLGELQEKLSELKETVELKSQEAQSLQQQRDQYLGHLQQYVAAYQQLTSEKEVLHNQLLLQTQLVDQLQQQEAQGKAVAEMARQELQETQERLEAATQQNQQLRAQLSLMAHPGEGDGLDREEEEDEEEEEEEAVAVPQPMPSIPEDLESREAMVAFFNSAVASAEEEQARLRGQLKEQRVRCRRLAHLLASAQKEPEAAAPAPGTGGDSVCGETHRALQGAMEKLQSRFMELMQEKADLKERVEELEHRCIQLSGETDTIGEYIALYQSQRAVLKERHREKEEYISRLAQDKEEMKVKLLELQELVLRLVGDRNEWHGRFLAAAQNPADEPTSGAPAPQELGAANQQGDLCEVSLAGSVEPAQGEAREGSPRDNPTAQQIMQLLREMQNPRERPGLGSNPCIPFFYRADENDEVKITVI
On to B1, for which the binding entry in assay [1] and in assay [2] was “binds” throughout.
